Measured values: patent US20240277813A1, “TREATMENT OF OBESITY AND OBESITY-RELATED DISORDERS” (ANTAG THERAPEUTICS APS, priority 2021, published 2024)
At least one compound was matched to its structure with a doubt left.

Columns and labels:
[1] = test system: mice on a fat-diet, or lean mice; conditions: chronic administration, compared with vehicle control; cited from earlier work
[2] = test system: High fat diet (HFD) induced obese cynomolgus monkeys; assay: cynomolgus monkey efficacy study, 42 days daily SC treatment; type: in vivo, cynomolgus monkeys (Macaca fascicularis)

Compound: CCCCCCCCCCCCCCCC(=O)N[C@@H](CCC(=O)NCCCC[C@H](NC(=O)[C@H](C)NC(=O)[C@H](C)NC(=O)[C@H](CCC(N)=O)NC(=O)CNC(=O)[C@H](CCC(=O)O)NC(=O)[C@H](CC(C)C)NC(=O)[C@H](Cc1ccc(O)cc1)NC(=O)[C@H](CO)NC(=O)[C@H](CO)NC(=O)[C@@H](NC(=O)[C@H](CC(=O)O)NC(=O)[C@H](CO)NC(=O)[C@@H](NC(=O)[C@H](Cc1ccccc1)NC(=O)[C@@H](NC(=O)CNC(=O)[C@H](CCC(=O)O)NC(=O)[C@H](C)NC(=O)[C@@H](N)Cc1cnc[nH]1)[C@@H](C)O)[C@@H](C)O)C(C)C)C(=O)N[C@@H](CCC(=O)O)C(=O)N[C@@H](Cc1ccccc1)C(=O)N[C@H](C(=O)N[C@@H](C)C(=O)N[C@@H](Cc1c[nH]c2ccccc12)C(=O)N[C@@H](CC(C)C)C(=O)N[C@H](C(=O)N[C@@H](CCCNC(=N)N)C(=O)NCC(=O)N[C@@H](CCCNC(=N)N)C(=O)NCC(=O)O)C(C)C)[C@@H](C)CC)C(=O)O [liraglutide, N26-(Hexadecanoyl-gamma-glutamyle)-(Arg34)GLP-1-(7-37)-peptide]
- absolute body weight or cumulative food intake [1]: reduced both body weight and food intake
- fasting LDL-c (in words) ([2]; during the study period, FIGS. 1E and F): increased LDL levels
- total average weight loss ([2]; last treatment day (day 42)): 4%
